# Laboratory results published in PubChem BioAssay AID248 (DTP/NCI, 2004).
# The list shows only some results of the screen, not a fair sample: it gathers tests that were run many times, whatever their T/C, doses with no T/C, and many T/C values between a quarter and a half above the control. Other doses and runs of a compound stand elsewhere. T/C is the treated group as % of the vehicle group. Some doses have a count of surviving animals in place of a T/C: the source files T/C as zero there, which appears to mark a toxic dose or a test without result, not a measured value. Some survivor counts are full or nearly so, which does not show that the dose was tolerated: the source hardly ever lists a survival T/C far under the control, and the zero likely stands for such cases as well. Survivors were counted at the toxicity check, usually on the fifth day, unless a day is given; later deaths do not show. Schedules are NCI's codes, read here as Q, the interval in days (D) or hours (H), X, the number of doses. Some entries were tested several times; the values are given in rising order. Where survival is the endpoint, this PubChem deposit counts one and a half times the control or more as active, and values a quarter to a half above the control carry no call in these data; other NCI protocols may use other cut-offs.
# Test system: L1210 leukemia ip in BDF1 mice, survival T/C
# Test: NCI In Vivo Anticancer Drug Screen. Data for tumor model L1210 Leukemia (intraperitoneal) in B6D2F1 (BDF1) mice
# Conditions: T/C endpoint: mean survival time, higher T/C = longer survival
# [1] = dose: 400.0 mg/kg/injection, schedule: Q01DX009 (ip), vehicle: saline
# [2] = dose: 400.0 mg/kg/injection, schedule: Q04DX003 (ip), vehicle: Klucel (hydroxypropylcellulose) (HPC)
# [3] = dose: 50.0 mg/kg/injection, schedule: Q01DX009 (ip), vehicle: Klucel (hydroxypropylcellulose) (HPC)
# [4] = dose: 200.0 mg/kg/injection, schedule: Q01DX009 (ip), vehicle: Klucel (hydroxypropylcellulose) (HPC)
# [5] = dose: 400.0 mg/kg/injection, schedule: Q01DX009 (ip), vehicle: Klucel (hydroxypropylcellulose) (HPC)
# [6] = dose: 200.0 mg/kg/injection, schedule: Q01DX009 (ip), vehicle: saline
# [7] = dose: 400.0 mg/kg/injection, schedule: Q01DX001 (ip), vehicle: saline
# [8] = dose: 200.0 mg/kg/injection, schedule: Q04DX003 (ip), vehicle: saline
# [9] = dose: 400.0 mg/kg/injection, schedule: Q04DX003 (ip), vehicle: saline
# [10] = dose: 100.0 mg/kg/injection, schedule: Q01DX001 (ip), vehicle: saline
# [11] = dose: 25.0 mg/kg/injection, schedule: Q01DX009 (ip), vehicle: Klucel (hydroxypropylcellulose) (HPC)
compound,measurement,setting,value
c1ccc([P+](Cc2cccc(C[P+](c3ccccc3)(c3ccccc3)c3ccccc3)c2)(c2ccccc2)c2ccccc2)cc1,survivor count,"dose: 5.0 mg/kg/injection, schedule: Q01DX001 (ip), vehicle: acetone",2 of 6
same,survivor count,"dose: 10.0 mg/kg/injection, schedule: Q01DX001 (ip), vehicle: saline",0 of 6
same,survivor count,"dose: 20.0 mg/kg/injection, schedule: Q01DX001 (ip), vehicle: saline",0 of 6
same,survivor count,"dose: 40.0 mg/kg/injection, schedule: Q01DX001 (ip), vehicle: saline",1 of 6
same,survivor count,"dose: 75.0 mg/kg/injection, schedule: Q01DX001 (ip), vehicle: acetone",0 of 6
same,survivor count,"dose: 150.0 mg/kg/injection, schedule: Q01DX001 (ip), vehicle: acetone",0 of 6
same,survivor count,"dose: 300.0 mg/kg/injection, schedule: Q01DX001 (ip), vehicle: acetone",0 of 6
CCN(CC)C(=O)N1CCCCC1,survivor count,[1],0 of 3
CCN(CC)Cc1ncccc1O,survivor count,[2],0 of 6
CCCCCCc1cc(N=Nc2ccc(S(=O)(=O)Nc3nnc(C)s3)cc2)c(O)cc1O,survivor count,"dose: 400.0 mg/kg/injection, schedule: Q01DX001 (ip), vehicle: carboxymethylcellulose (CMC)",1 of 4
CN(Cc1cnc2nc(N)nc(N)c2n1)c1ccc(C(=O)NC(CCC(=O)O)C(=O)O)c(Cl)c1 (centres undefined),survivor count,"dose: 6.25 mg/kg/injection, schedule: Q01DX009 (ip), vehicle: sodium bicarbonate",0 of 10
same,T/C,"dose: 12.5 mg/kg/injection, schedule: Q01DX009 (ip), vehicle: sodium bicarbonate",138 % of control
same,T/C,"dose: 50.0 mg/kg/injection, schedule: Q01DX009 (ip), vehicle: sodium bicarbonate",126 % of control
O=C(Nc1ccc(Cl)c(C(F)(F)F)c1)Oc1cccnc1,survivor count,[3],6 of 6
same,survivor count,[4],2 of 6
same,survivor count,[5],0 of 6
Cc1ccc(C(=O)C=Nc2ccc(C(=O)O)cc2)cc1,survivor count,[2],6 of 6
CC[N+](C)(C)c1ncnc2nc[nH]c12,survivor count,[6],3 of 6
same,survivor count,[7],0 of 6
C=CCc1cn(C2OC(COC(=O)c3ccccc3)C(OC(=O)c3ccccc3)C2OC(=O)c2ccccc2)c(=O)[nH]c1=O (centres undefined),survivor count,"dose: 100.0 mg/kg/injection, schedule: Q01DX005 (ip), vehicle: saline",1 of 7
same,survivor count,"dose: 200.0 mg/kg/injection, schedule: Q01DX005 (ip), vehicle: saline",1 of 7
Cc1cc(C)[n+](C)c(C)c1,survivor count,[8],3 of 6
same,survivor count,[9],1 of 6
S=C1CCNCC1,survivor count,[8],2 of 6
same,survivor count,[9],0 of 6
OCc1ccc[n+](CCc2c[nH]c3ccccc23)c1,survivor count,"dose: 400.0 mg/kg/injection, schedule: Q04DX003 (ip), vehicle: saline with Tween-80",3 of 6
CC(C)CC(NC(=O)OCc1ccccc1)C(=O)NCCCCCCNCCCCCCNC(=O)C(CC(C)C)NC(=O)OCc1ccccc1 (centres undefined),survivor count,[10],2 of 4
same,survivor count,[7],0 of 4
CCC[CH2][Sn]1([CH2]CCC)[O]C(=O)CCC(=O)[O]1,survivor count,"dose: 6.25 mg/kg/injection, schedule: Q01DX009 (ip), vehicle: Klucel (hydroxypropylcellulose) (HPC)",0 of 3
same,survivor count,[11],0 of 3
same,survivor count,[3],0 of 3
same,survivor count,"dose: 100.0 mg/kg/injection, schedule: Q01DX009 (ip), vehicle: Klucel (hydroxypropylcellulose) (HPC)",0 of 3 and 0 of 6
same,survivor count,[4],0 of 6
same,survivor count,[5],0 of 6
CNc1c([N+](=O)[O-])ncn1C,survivor count,[8],2 of 6
same,survivor count,[9],0 of 6
CSc1nccc(=O)n1C,survivor count,"dose: 100.0 mg/kg/injection, schedule: Q01DX009 (ip), vehicle: saline",0 of 6
same,survivor count,[6],0 of 6
same,survivor count,[1],0 of 6
C=CCn1cnc2c(=S)nc[nH]c21,T/C,"dose: 18.0 mg/kg/injection, schedule: Q01DX015 (ip), vehicle: other",135 % of control
same,T/C,"dose: 26.0 mg/kg/injection, schedule: Q01DX015 (ip), vehicle: other",133 % of control
same,T/C,"dose: 40.0 mg/kg/injection, schedule: Q01DX015 (ip), vehicle: other",133 % of control
same,survivor count,"dose: 180.0 mg/kg/injection, schedule: Q01DX015 (ip), vehicle: other",6 of 6
same,T/C,"dose: 200.0 mg/kg/injection, schedule: Q01DX001 (ip), vehicle: other",143 % of control
same,survivor count,"dose: 300.0 mg/kg/injection, schedule: Q01DX015 (ip), vehicle: other",6 of 6
same,T/C,"dose: 400.0 mg/kg/injection, schedule: Q01DX001 (ip), vehicle: other",135 % of control
C(CC1CC1)OCOCCC1CC1,survivor count,"dose: 400.0 mg/kg/injection, schedule: Q01DX001 (ip), vehicle: saline with Tween-80",1 of 3
Cn1ncc2c(NCc3ccccc3Cl)ncnc21,T/C,"dose: 100.0 mg/kg/injection, schedule: Q01DX009 (ip), vehicle: other",134 % of control
same,survivor count,"dose: 400.0 mg/kg/injection, schedule: Q01DX009 (ip), vehicle: other",3 of 6
CC1(C)COP(=O)(O)OC1,survivor count,[7],5 of 6
CCC[CH2][Pb]([CH2]CCC)([CH2]CCC)[O]C(=O)CCl,survivor count,"dose: 12.5 mg/kg/injection, schedule: Q01DX009 (ip), vehicle: Klucel (hydroxypropylcellulose) (HPC)",4 of 6
same,survivor count,[11],0 of 6
same,survivor count,"dose: 50.0 mg/kg/injection, schedule: Q04DX003 (ip), vehicle: Klucel (hydroxypropylcellulose) (HPC)",0 of 6
same,survivor count,"dose: 100.0 mg/kg/injection, schedule: Q04DX003 (ip), vehicle: Klucel (hydroxypropylcellulose) (HPC)",1 of 6
same,survivor count,"dose: 200.0 mg/kg/injection, schedule: Q04DX003 (ip), vehicle: Klucel (hydroxypropylcellulose) (HPC)",0 of 6
same,survivor count,[2],0 of 6
CC1(C)N=C(N)N=C(N)N1c1cccc(OCCOc2cccc([N+](=O)[O-])c2)c1,survivor count,[10],2 of 6
same,survivor count,"dose: 200.0 mg/kg/injection, schedule: Q01DX001 (ip), vehicle: saline",0 of 6
same,survivor count,[7],0 of 6
